Laboratory results: PubChem BioAssay AID686943 (Drosophila RNAi Screening Center, 2013)

Purpose: 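Search across the genome for regulators of signalling from receptor tyrosine kinase to ERK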 (primary screen)
Cells: Drosophila S2R+ haemocyte-like cells expressing YFP-tagged ERK (Rolled)
Reagents: long dsRNA against Drosophila genes
Challenge: insulin stimulation versus unstimulated cells; dose and duration not given
Measured: 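Antibody staining for doubly phosphorylated ERK divided by ERK-YFP signal, as plate z-scores, in insulin-treated and untreated cells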
Scale: replicate 1, z-score of dpERK with insulin and replicate 2, z-score of dpERK with insulin: higher = more active ERK per ERK-YFP after insulin; replicate 1, z-score of dpERK under basal conditions: higher = more basal active ERK per ERK-YFP; replicate 1, z-score of ERK-YFP with insulin: higher = more YFP-tagged ERK signal
The screen tested about 23,000 reagents; below is an unselected part of those with a known target gene and a result. 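Extra replicates exist only for a retested subset of genes; insulin dose and duration not given; both raised and lowered dpERK matter.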 Not stated in the record: the amount of reagent, the time to read-out.

| replicate 1, z-score of dpERK with insulin | replicate 2, z-score of dpERK with insulin | replicate 1, z-score of dpERK under basal conditions | replicate 1, z-score of ERK-YFP with insulin | target gene | amplicon |
| --- | --- | --- | --- | --- | --- |
| -0.37 | -0.38 | 0.96 | -0.13 | CG34302 (GeneID 5740537) | DRSC12751 |
| -0.65 | 0.63 | 0.97 | 0.72 | Xpac (GeneID 31357) | DRSC18730 |
| -0.16 | -0.25 | -1.9 | 0.9 | CG6565 (GeneID 34749) | DRSC02970 |
| -0.74 | -0.51 | -0.07 | 1.42 | Atg9 (GeneID 36821) | DRSC06848 |
| 1.8 | 1.13 | -0.26 | -0.31 | TfIIEbeta (GeneID 38527) | DRSC08701 |
| 0.63 | -0.06 | 1.7 | -0.48 | CG12507 (GeneID 32580) | DRSC19463 |
| 0.84 | 0.27 | -0.01 | 0.15 | CG33170 (GeneID 326267) | DRSC11854 |
| 0 | 1.17 | -0.78 | 0.58 | CG33170 (GeneID 326267) | DRSC22366 |
| 0.85 | 0.63 | -0.5 | 0.41 | CG6443 (GeneID 34477) | DRSC02958 |
| -0.21 | -0.21 | -0.02 | 0.28 | CG6933 (GeneID 40214) | DRSC10751 |
| 0.88 | 0.8 | -0.03 | -0.14 | CG9628 (GeneID 39593) | DRSC11082 |
| -0.4 | -0.46 | 1.12 | 0.2 | CG16820 (GeneID 34730) | DRSC02522 |
| 0.1 | 0.52 | -0.3 | 0.19 | CG10927 (GeneID 37135) | DRSC06014 |
| 0.49 | 0.35 | 1.05 | -0.04 | Best1 (GeneID 53431) | DRSC16909 |
| -0.42 | -0.18 | -0.84 | 0.3 | Mettl2 (GeneID 38197) | DRSC08398 |
| -0.13 | 1.33 | -0.43 | -0.03 | nwk (GeneID 39052) | DRSC10439 |
| -0.61 | 0.35 | -0.69 | 0.33 | nwk (GeneID 39052) | DRSC10442 |
| -0.88 | 0.47 | -0.99 | 0.89 | CYLD (GeneID 34380) | DRSC02870 |
| 0.72 | -3.98 | 1.48 | -1.29 | CG30270 (GeneID 251324) | DRSC22890 |
| 0.04 | 0.47 | 0.58 | 0.49 | CG17917 (GeneID 40778) | DRSC12570 |
| -0.59 | -0.4 | -0.78 | 0.24 | CG9485 (GeneID 37435) | DRSC04557 |
| -0.18 | 0.33 | 0.13 | 0.29 | CG4681 (GeneID 37928) | DRSC04481 |
| 0.19 | -0.2 | -0.36 | 0.07 | Lac (GeneID 36363) | DRSC07452 |

Looked up above:
Result for CG6933 (GeneID 40214) [DRSC10751] in “replicate 2, z-score of dpERK with insulin”: -0.21
Atg9 (GeneID 36821) [DRSC06848], replicate 1, z-score of dpERK with insulin → -0.74
CG6565 (GeneID 34749) [DRSC02970], replicate 1, z-score of dpERK with insulin = -0.16
